# From the supplement of paper PMC8728848
# The list shows a part of the results.
# B1: his-Lectin-24A (Drosophila melanogaster) (protein)
# chain: MFRLSVLVLNLLLVSHEFSAGTAKIEIQPLPALCNGYCFPTLKPVMEYVAIHQDKWNTCTEILANEARKDQIQLNIQLDALKADVSNIKASQLSKDEKLDRMEREQFAMHESLETINRYLTVKLDRTKLQLEAIKNTMDYMKAQMDGYFSAINGVQCLQPGFEKIGDRYFYIEEDVELNWLDAQAKCRRMGGHLASIKTKQEFDAIVEKLDDSKSYFLGVNENTKTGDFVSAASGKSCLYHEWGPGEPHHNNDQERCVSILRKLMHVGNCTYEKRFICQYGI
# Experiments:
# Assay in all cases: glycan array binding signal (z-score within array); higher = stronger binding
# Details in all cases: glycan notation: IUPAC condensed, linker removed
# [1] = molecular target: Neu5Ac(a2-6)Gal(b1-4)GlcNAc(b1-2)Man(a1-3)[Man(a1-6)]Man(b1-4)GlcNAc(b1-4)GlcNAc
# In short: (§1)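 The binding signal is a Z-score computed within each array. Data were drawn from 3228 arrays in the Consortium for Functional Glycomics database, restricted to those with a known protein sequence. Scores were averaged over arrays of the same protein sequence at different concentrations or buffers, and over linkers, and negative values can be taken as non-binding.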
# [2] = molecular target: Neu5Ac(a2-6)Gal(b1-4)GlcNAc(b1-2)Man(a1-3)[Neu5Ac(a2-3)Gal(b1-4)GlcNAc(b1-2)Man(a1-6)]Man(b1-4)GlcNAc(b1-4)GlcNAc
# In short: as §1
# [3] = molecular target: Neu5Ac(a2-6)Gal(b1-4)GlcNAc(b1-2)Man(a1-3)[Neu5Ac(a2-6)Gal(b1-4)GlcNAc(b1-2)Man(a1-6)]Man(b1-4)GlcNAc(b1-4)GlcNAc
# In short: as §1
# [4] = molecular target: Neu5Ac(a2-6)Gal(b1-4)GlcNAc(b1-2)Man(a1-3)[Neu5Ac(a2-6)Gal(b1-4)GlcNAc(b1-2)Man(a1-6)]Man(b1-4)GlcNAc(b1-4)[Fuc(a1-6)]GlcNAc
# In short: as §1
# [5] = molecular target: Neu5Ac(a2-6)Gal(b1-4)GlcNAc(b1-2)Man(a1-6)Man(b1-4)GlcNAc(b1-4)GlcNAc
# In short: as §1
# [6] = molecular target: Neu5Ac(a2-6)Gal(b1-4)GlcNAc(b1-2)Man(a1-6)[Gal(b1-4)GlcNAc(b1-2)Man(a1-3)]Man(b1-4)GlcNAc(b1-4)GlcNAc
# In short: as §1
# [7] = molecular target: Neu5Ac(a2-6)Gal(b1-4)GlcNAc(b1-2)Man(a1-6)[GlcNAc(b1-2)Man(a1-3)]Man(b1-4)GlcNAc(b1-4)GlcNAc
# In short: as §1
# [8] = molecular target: Neu5Ac(a2-6)Gal(b1-4)GlcNAc(b1-2)Man(a1-6)[Man(a1-3)]Man(b1-4)GlcNAc(b1-4)GlcNAc
# In short: as §1
# [9] = molecular target: Neu5Ac(a2-6)Gal(b1-4)GlcNAc(b1-2)[Neu5Ac(a2-6)Gal(b1-4)GlcNAc(b1-4)]Man(a1-3)[GlcNAc(b1-4)][Neu5Ac(a2-6)Gal(b1-4)GlcNAc(b1-2)[Neu5Ac(a2-6)Gal(b1-4)GlcNAc(b1-6)]Man(a1-6)]Man(b1-4)GlcNAc(b1-4)GlcNAc
# In short: as §1
# [10] = molecular target: Neu5Ac(a2-6)Gal(b1-4)GlcNAc(b1-2)[Neu5Ac(a2-6)Gal(b1-4)GlcNAc(b1-4)]Man(a1-3)[GlcNAc(b1-4)][Neu5Ac(a2-6)Gal(b1-4)GlcNAc(b1-4)Man(a1-6)]Man(b1-4)GlcNAc(b1-4)GlcNAc
# In short: as §1
# [11] = molecular target: Neu5Ac(a2-6)Gal(b1-4)GlcNAc(b1-2)[Neu5Ac(a2-6)Gal(b1-4)GlcNAc(b1-6)]Man(a1-6)[Neu5Ac(a2-6)Gal(b1-4)GlcNAc(b1-2)Man(a1-3)][GlcNAc(b1-4)]Man(b1-4)GlcNAc(b1-4)GlcNAc
# In short: as §1
# [12] = molecular target: Neu5Ac(a2-6)Gal(b1-4)GlcNAc(b1-3)Gal(b1-3)GlcNAc
# In short: as §1
# [13] = molecular target: Neu5Ac(a2-6)Gal(b1-4)GlcNAc(b1-3)Gal(b1-4)GlcNAc
# In short: as §1
# [14] = molecular target: Neu5Ac(a2-6)Gal(b1-4)GlcNAc(b1-3)Gal(b1-4)GlcNAc(b1-2)Man(a1-3)[Neu5Ac(a2-6)Gal(b1-4)GlcNAc(b1-3)Gal(b1-4)GlcNAc(b1-2)Man(a1-6)]GalNAc
# In short: as §1
# [15] = molecular target: Neu5Ac(a2-6)Gal(b1-4)GlcNAc(b1-3)Gal(b1-4)GlcNAc(b1-3)Gal(b1-4)GlcNAc
# In short: as §1
# [16] = molecular target: Neu5Ac(a2-6)Gal(b1-4)GlcNAc(b1-3)Gal(b1-4)GlcNAc(b1-3)Gal(b1-4)GlcNAc(b1-2)Man(a1-3)[Neu5Ac(a2-6)Gal(b1-4)GlcNAc(b1-3)Gal(b1-4)GlcNAc(b1-3)Gal(b1-4)GlcNAc(b1-2)Man(a1-6)]GalNAc
# In short: as §1
# [17] = molecular target: Neu5Ac(a2-6)Gal(b1-4)GlcNAc(b1-3)Gal(b1-4)GlcNAc(b1-3)GalNAc
# In short: as §1
# [18] = molecular target: Neu5Ac(a2-6)Gal(b1-4)GlcNAc(b1-3)Gal(b1-4)GlcNAc(b1-3)[Neu5Ac(a2-6)Gal(b1-4)GlcNAc(b1-3)Gal(b1-4)GlcNAc(b1-6)]GalNAc
# In short: as §1
# [19] = molecular target: Neu5Ac(a2-6)Gal(b1-4)GlcNAc(b1-3)Gal(b1-4)GlcNAc(b1-6)[Gal(b1-3)]GalNAc
# In short: as §1
# [20] = molecular target: Neu5Ac(a2-6)Gal(b1-4)GlcNAc(b1-3)Gal(b1-4)[Fuc(a1-3)]GlcNAc(b1-3)Gal(b1-4)[Fuc(a1-3)]GlcNAc
# In short: as §1
# [21] = molecular target: Neu5Ac(a2-6)Gal(b1-4)GlcNAc(b1-3)GalNAc
# In short: as §1
# [22] = molecular target: Neu5Ac(a2-6)Gal(b1-4)GlcNAc(b1-3)[Neu5Ac(a2-6)Gal(b1-4)GlcNAc(b1-6)]GalNAc
# In short: as §1
# [23] = molecular target: Neu5Ac(a2-6)Gal(b1-4)GlcNAc(b1-6)GalNAc
# In short: as §1
# [24] = molecular target: Neu5Ac(a2-6)Gal(b1-4)GlcNAc(b1-6)[Gal(b1-3)GlcNAc(b1-3)]Gal(b1-4)Glc
# In short: as §1
# [25] = molecular target: Neu5Ac(a2-6)Gal(b1-4)GlcNAc(b1-6)[Gal(b1-3)]GalNAc
# In short: as §1
# [26] = molecular target: Neu5Ac(a2-6)Gal(b1-4)GlcNAc6S
# In short: as §1
# [27] = molecular target: Neu5Ac(a2-6)GalNAc
# In short: as §1
# [28] = molecular target: Neu5Ac(a2-6)GalNAc(b1-4)GlcNAc
# In short: as §1
# [29] = molecular target: Neu5Ac(a2-6)GalNAc(b1-4)GlcNAc6S
# In short: as §1
# [30] = molecular target: Neu5Ac(a2-6)GlcNAc(b1-4)GlcNAc
# In short: as §1
# [31] = molecular target: Neu5Ac(a2-6)GlcNAc(b1-4)GlcNAc(b1-4)GlcNAc
# In short: as §1
binder,measurement,setting,value
B1,glycan array binding signal (z-score),[1],-0.737
same,glycan array binding signal (z-score),[2],-0.316
same,glycan array binding signal (z-score),[3],0.078
same,glycan array binding signal (z-score),[4],1.74
same,glycan array binding signal (z-score),[5],1.27
same,glycan array binding signal (z-score),[6],-1.12
same,glycan array binding signal (z-score),[7],-0.546
same,glycan array binding signal (z-score),[8],1.07
same,glycan array binding signal (z-score),[9],-0.371
same,glycan array binding signal (z-score),[10],-0.73
same,glycan array binding signal (z-score),[11],-2.86
same,glycan array binding signal (z-score),[12],0.708
same,glycan array binding signal (z-score),[13],-1.46
same,glycan array binding signal (z-score),[14],1.05
same,glycan array binding signal (z-score),[15],0.198
same,glycan array binding signal (z-score),[16],0.167
same,glycan array binding signal (z-score),[17],-1.61
same,glycan array binding signal (z-score),[18],0.118
same,glycan array binding signal (z-score),[19],0.779
same,glycan array binding signal (z-score),[20],0.826
same,glycan array binding signal (z-score),[21],-1.68
same,glycan array binding signal (z-score),[22],0.73
same,glycan array binding signal (z-score),[23],-0.515
same,glycan array binding signal (z-score),[24],0.282
same,glycan array binding signal (z-score),[25],0.152
same,glycan array binding signal (z-score),[26],-0.082
same,glycan array binding signal (z-score),[27],-1.17
same,glycan array binding signal (z-score),[28],-1.81
same,glycan array binding signal (z-score),[29],0.466
same,glycan array binding signal (z-score),[30],1.01
same,glycan array binding signal (z-score),[31],-0.648

# Rewritten bar-delimited: entries from further up
binder | measurement | setting | value
B1 | glycan array binding signal (z-score) | [1] | -0.737
same | glycan array binding signal (z-score) | [3] | 0.078
same | glycan array binding signal (z-score) | [7] | -0.546
same | glycan array binding signal (z-score) | [18] | 0.118
same | glycan array binding signal (z-score) | [25] | 0.152
same | glycan array binding signal (z-score) | [26] | -0.082
same | glycan array binding signal (z-score) | [29] | 0.466
same | glycan array binding signal (z-score) | [30] | 1.01
